In the supplement of paper PMC3334620:
In all, about 33,000 sequences were measured (“E-score (-0.5 to 0.5)”: median about -0.016, highest 2% from about 0.3 on). Some of the results follow.

Biological target: T1, Yer184c (UniProt P39961)
T1 sequence: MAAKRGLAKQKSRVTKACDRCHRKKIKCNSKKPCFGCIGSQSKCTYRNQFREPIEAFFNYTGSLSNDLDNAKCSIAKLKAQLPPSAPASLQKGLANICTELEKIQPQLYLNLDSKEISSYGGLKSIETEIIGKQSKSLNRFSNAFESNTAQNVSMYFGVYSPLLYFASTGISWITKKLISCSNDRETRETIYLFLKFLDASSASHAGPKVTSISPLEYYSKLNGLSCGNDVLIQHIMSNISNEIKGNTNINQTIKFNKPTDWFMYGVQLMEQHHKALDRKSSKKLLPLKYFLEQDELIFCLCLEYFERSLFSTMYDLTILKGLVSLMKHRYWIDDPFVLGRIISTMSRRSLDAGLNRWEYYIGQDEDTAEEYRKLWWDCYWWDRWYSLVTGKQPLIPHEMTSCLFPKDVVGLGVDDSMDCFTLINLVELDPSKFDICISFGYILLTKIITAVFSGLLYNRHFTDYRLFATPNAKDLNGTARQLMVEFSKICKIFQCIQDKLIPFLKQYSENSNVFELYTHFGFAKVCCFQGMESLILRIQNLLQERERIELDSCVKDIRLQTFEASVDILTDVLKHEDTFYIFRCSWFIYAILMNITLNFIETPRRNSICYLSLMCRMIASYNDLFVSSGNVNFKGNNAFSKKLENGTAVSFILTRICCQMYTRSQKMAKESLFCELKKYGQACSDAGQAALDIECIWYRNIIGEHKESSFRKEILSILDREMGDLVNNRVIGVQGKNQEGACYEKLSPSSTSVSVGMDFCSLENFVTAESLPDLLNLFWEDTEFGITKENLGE
Assay: PBM E-score (8-mer binding enrichment) (E-score (-0.5 to 0.5)); higher = stronger / more preferred TF binding
Details: protein concentration: 100 nM; construct: GST-full length
Method in brief: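 For each ungapped eight-base word taken together with its reverse complement, the Universal PBM Analysis Suite assigned an E-score. Binding data came from GST-tagged yeast transcription factors, applied at about 100-200 nM, on universal all-10-mer Agilent arrays made double-stranded by primer extension. Fluorescent anti-GST marked bound protein, and scans were normalised with masliner.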

Sequence	PBM E-score
AATCCTGT	0.171
ACCGAGGT	0.152
CGAATAAC	-0.0558
GTGTTCAA	0.155
GAGCCAGC	-0.0389
CCTCACCG	-0.125
CCCCCGAC	-0.159
AAAGCGGC	0.189
CTCTCTTA	-0.00692
CGAAGTTA	0.068
AGACGTGG	-0.2
ACTTTAAA	0.264
AGTGCTCA	-0.217
CACCGAGC	0.231
GGTATACC	0.0653
GGGGACCA	-0.295
AGTGTTCC	0.179
CCATGCAC	-0.187
ACTTTTCC	0.19
ATAGAGAG	-0.206
TGTTGCAA	0.136
TATGAGCA	-0.136
CTTATGAC	0.0647
GAATTCGA	0.0389
CGTTATTC	0.0466

Sequence	PBM E-score
AGCATGTA	-0.221
GCTGAGAA	-0.0651
AACTTTCG	0.0577
ACGCCCGC	-0.197
CAACGATG	-0.0995
GATGACAC	0.037
AATGGATA	-0.0725
AGGAAAAG	0.0648
GTCTGTCA	0.0873
CCCTCTGA	-0.123
GTGGGCCA	-0.0334
CATCGTCA	0.0194
GTTCAGCA	-0.0489
ATCGAGGC	-0.0232
AATCTGCG	0.138
AACAGTAA	0.0462
ACTAGAGT	-0.00978
AAAAAGTA	0.148
CCCTTTAC	-0.222
ACAGCTCT	-0.291
ACTGTTAA	-0.0278
CTCTAGAG	-0.248
TATATTAA	0.274
ACTGCGAC	0.133
AACTTGTC	0.0387

An excerpt of these results, in CSV form.
Sequence,PBM E-score
ATCGAGGC,-0.0232
AATCTGCG,0.138
AACAGTAA,0.0462

Continued.

Sequence	PBM E-score
CAGTAGCG	-0.0946
TAACTCGA	0.22
CTAGGTAA	-0.0185
AAACGAGG	-0.124
ACCGCTAG	-0.297
ACACGTGA	-0.0935
ACCTGGTG	-0.0835
AAAGGAGT	0.0301
GGTCCAAC	-0.0503
AATCGCGG	0.108
GACTGAAC	-0.0649
CGTCAGGA	-0.147
GATGTACA	0.102
CACCTGCC	-0.0338
AGATGTAT	-0.0046
ACAGAATC	0.0509
CCCAACTC	-0.00595
CAAGGTTC	-0.178
GACAAGAA	0.151
AAAACCTT	0.0691
GACGTCGC	-0.217
CATGGGCC	-0.144
ATTAGAAT	0.115
AACGCGAT	-0.0476
CTGCAAAA	0.0387

Sequence	PBM E-score
CGCCAGAG	-0.245
ACGCATTG	-0.182
ATTACAGC	-0.0585
AAAAGATG	0.0556
CCGAGATC	0.215
CAGAACCA	-0.18
GATCGTAA	-0.0745
CATTAGGA	-0.0805
GGTCGTAC	-0.214
GGGTGGAA	-0.245
GAAGACTC	-0.148
TATTAAAA	0.318
ACCGCGGT	0.195
CCCTTCCG	0.0332
ATATATCC	0.318
AGGTAGAT	-0.00359
CTATCCTC	-0.181
ATATCGGC	0.273
TACCAGTA	0.0786
GGAAGTAC	0.0685
GTGCTGAA	-0.105
GTCCCGAC	0.0165
ACCGACGA	0.14
AATATGTG	0.212
CGTCAAAG	-0.0597

Sequence	PBM E-score
CCTTATAA	0.0799
TCAGCGGA	0.132
GTGTGGGA	-0.0509
CGAAAACG	0.176
CATTCATC	-0.114
AGCATGAG	-0.147
CGTTTCAG	0.133
CATTTACC	0.0454
CACAGTCA	-0.168
ACGTACCC	-0.109
CCAAAAGC	0.0422
CAGGCATC	-0.177
AGCATACC	-0.196
AGGATTAT	-0.00175
ACAACTCG	0.127
ATCGAACC	0.076
ACAGTACC	0.0654
CGGATGGA	0.207
GCCTTATA	-0.0774
AATGATCT	-0.004
AGACGACC	-0.185
AAAGAAAG	0.0977
AGCGACCT	-0.184
GCTAGTCC	-0.116
AATTCTCA	0.0489

Sequence	PBM E-score
AATAGCAT	-0.00536
AGCTCTGA	-0.246
AACCAGGT	-0.0811
ACTTTCGC	-0.145
AGGGCCGC	-0.233
AACCGCGC	0.0732
GAAGTTCA	0.122
AGGTGGAG	-0.286
GAAACAAA	0.173
CTAGCTAG	-0.0127
CGATGCGA	-0.0338
GCGCCAGC	-0.0829
ACAGGGGG	-0.339
AAATGGAT	-0.101
ATCCCGGA	0.274
CAACCAGC	-0.179
CGAGTATC	-0.131
TGCAAAAA	0.00535
GGGGATTA	-0.232
ATCGTGGC	-0.101
ATTTCTCG	0.308
CCGGTTGA	0.321
GGCTGATA	-0.0442
AGGAGCGC	-0.0781
ACGAGCGG	-0.162

Sequence	PBM E-score
GAATTACC	0.165
GGCTGCCC	-0.0502
GTACGGAC	0.203
TATGAGAA	0.0707
AGGAACAT	0.00633
CTCAGCTA	-0.106
AGAAACTA	-0.0263
AATTCCGT	0.328
CCCCGACA	-0.0219
CAATTCAC	0.145
TGAGCACA	0.0117
ACGTACCT	-0.268
CCTCACGC	0.0151
ACGCATGA	-0.177
CGGTGCAA	-0.0375
TGCCGCAA	0.135
CTCACCAG	-0.139
ACCAAGTC	0.0425
ACCATGGA	-0.233
CGTGTCTA	-0.0239
GCGTGGAC	-0.154
GCGACGCA	-0.0707
TGTACTAA	0.108
ACGCGAAC	-0.0697
CGAGATAC	0.131

Sequence	PBM E-score
GTGGTCAA	-0.142
GAAATACA	-0.0184
AAGAAGAG	0.0534
CTCTGGGA	-0.147
AGTGGGCA	-0.0949
AGTCCACC	-0.0989
GATCAATA	0.164
CGTCCACG	-0.0331
CAAGTAGC	-0.216
ATAATTCG	0.0636
CGGGCTAC	0.00991
AGCTTTTA	0.0954
CTAACTGA	0.113
ATCAAAAA	0.164
GATATCCA	0.0875
CGTGACTC	-0.197
CGTCACAC	-0.167
CCCTCCAC	-0.266
CAGCAGGG	-0.351
ATTACCAG	-0.00578
ACATCTCA	-0.0525
ACAACTGG	-0.142
TTCTAGAA	0.0755
ACGGGTCC	-0.00653
ATAAGACG	-0.121

Rewritten bar-delimited: part of the list above.
Sequence | PBM E-score
ATAATTCG | 0.0636
CGGGCTAC | 0.00991
AGCTTTTA | 0.0954
CTAACTGA | 0.113
ATCAAAAA | 0.164
GATATCCA | 0.0875

Continuation.

Sequence	PBM E-score
ACCGCGCG	0.22
TATCCTGA	0.0496
GCACAGGC	-0.133
CAGACGGC	-0.0755
CGGGCCGC	0.137
AGCAGGCG	0.0901
GACGTTGA	0.0159
AACATTAG	-0.193
TACAAAAA	0.153
CCTGCCGA	0.113
TCCATAGA	0.0746
GTACACTA	-0.031
CTATGGCC	-0.185
CCCGAGGC	-0.013
ATGCCAAG	-0.148
ACGGGTTA	-0.281
CCAACTCG	-0.0499
CCCTGGAA	-0.291
AGCACGGA	0.11
ACACACCC	-0.0674
ACGTATCC	-0.154
TGGATAAA	0.18
CGTTGTCC	0.178
CCCGGGAC	0.238
CTTGTGTC	-0.0357

Sequence	PBM E-score
TCACAAAA	0.205
GATTAAAA	0.296
CACATGGC	0.0835
AGAAGACC	-0.144
AGGTTCAT	-0.121
CGTAACTC	-0.0641
CATACCAC	0.0462
CCGCGTGC	-0.013
AGTCGCGA	0.112
TAGTGTGA	-0.0491
AGCTATCC	-0.128
CTGTACTA	0.185
ACAAATGG	-0.117
CTACACGC	-0.291
AAGTTACA	-0.0365
ACTTACTA	-0.118
CTTTCTAA	0.272
ATACCCCA	-0.122
AGGATCAA	0.14
ATAATCTG	-0.0596
AAATCCCT	-0.153
CAAGATCA	-0.12
ACCCCACC	0.0874
CGACTCAG	-0.0669
CGAGAGAG	0.166

Sequence	PBM E-score
GTCGTTGA	-0.0823
CCATTAGG	-0.285
GGCGGCCC	-0.254
AACATTCA	-0.0155
CGAACGAG	-0.15
AATACGAC	-0.0663
AATCTGGA	0.0411
AGCGGCTC	0.106
GGCCATAA	-0.102
CCGGATAC	0.257
AATACATC	0.124
CCTTAAAC	0.00871
CGGACCGA	0.402
CACCGCGG	0.242
ACCTCACA	-0.0804
ACCTCGAG	0.0316
CATTATTA	0.0899
GCAAGGTA	-0.0603
CAGCCCCA	-0.279
GGATACAA	0.117
CCTATGAA	-0.0384
TGGGGACA	-0.2
GAGTCTCA	-0.137
AGACATTA	0.0119
CAAAGGCG	-0.0505

Sequence	PBM E-score
ATTGTGAA	0.0416
CTGTTCTC	0.03
CGACAAAG	0.162
AAGTTTTC	0.17
ATTCCTGC	0.0275
CGCGAACC	0.139
CCCTCGGC	0.282
GAGTCTCC	-0.0445
CAAATCTA	-0.0581
GCAAACAC	-0.0972
GAACCCGA	0.0906
CAGAACGC	-0.0829
GCACTACC	-0.00491
GCAATCCC	0.0287
GAATGAAC	0.197
AGGTAACA	0.0395
ACAGTCGA	-0.165
AAGCAGCG	0.0829
AAAAGAAA	0.236
AGTTCTGA	0.0568
ATTCCGGG	0.356
AGGTAATC	0.0784
CGCGTATC	-0.052
AAAGGGCA	-0.226
ATAAGACA	-0.0537

Sequence	PBM E-score
CAACTTCA	-0.027
TGGGAACA	-0.0108
CTGCTTAC	-0.142
ACAACAGC	0.0103
AGCCCACG	-0.0881
ACGCAAAG	-0.113
AAAGTCCT	-0.0231
GTGTCTAA	0.122
ACGACTTG	-0.175
CATGAAGA	0.091
AAGGGAGT	-0.301
GTCCTATA	-0.16
AGACGAAG	0.0368
CGACGATA	0.0675
AAATGCAA	-0.0304
AACGTGGA	-0.176
CTATAGGC	-0.049
CTTGAAAG	0.0369
CCACCGAG	-0.154
GCGCGAGC	-0.0715
ACACTATG	0.00249
ACTTGTAT	-0.0115
GGGCAACC	-0.121
AGCTCAAG	-0.145
CCGTCGAA	0.0885

Retrieved one by one from the entries so far, two records:
Sequence	PBM E-score
AAAGTCCT	-0.0231
GCGCGAGC	-0.0715

Following part.

Sequence	PBM E-score
ACGAGGTA	-0.0467
AAATATTA	0.206
ATCAATCC	0.0215
CATATTTC	-0.00731
CCGATTGC	0.18
CGTTCCCA	-0.157
CAACAATG	0.102
CCCCATAG	-0.102
GTGGACAC	-0.146
ATAGTCCA	-0.0529
AGCATCAG	-0.131
CTGAGTTC	-0.0142
GGGGTGAC	-0.225
CTCACTCC	0.012
GCACGCGA	0.00413
CTAAGTCC	-0.206
CCGCAAAC	0.144
TACCCAAA	-0.0411
CTGGCCGC	-0.117
